At least one peptide structure holds a part that was inferred or is arguable (an end, a ring closure or a residue). Some compounds share one wording; it may come from a single statement. Some results were stated once for a whole list of compounds, not compound by compound. Residues, ends and D or L forms follow the SMILES beside them.
How the values were obtained:
[1] = test system: Der p I primed T cell lines; assay: Secondary T cell proliferation assay, T cell lines primed in vitro with Der p I (Examples V, VII, XI, XII); assay type: cell-based, human; conditions: for S.I. with which this patient responds: individual 543, primed with 20 μg/ml purified native Der p I, data not shown
[2] = test system: Secondary T cell cultures reactive with Der p I protein allergen; assay: Percentage of total Group I T cell reactivity and patient coverage of candidate peptides (Example XVII); assay type: cell-based, human; conditions: patient 1733; highest S.I. >= 2.0 recorded per peptide

CC[C@H](C)[C@H](NC(=O)[C@H](C)NC(=O)[C@H](CO)NC(=O)[C@H](Cc1c[nH]cn1)NC(=O)[C@@H](NC(=O)[C@H](CCC(N)=O)NC(=O)[C@H](C)NC(=O)[C@H](CC(C)C)NC(=O)[C@H](C)NC(=O)[C@H](CCC(=O)O)NC(=O)[C@H](CCCNC(=N)N)NC(=O)[C@@H](NC(=O)[C@H](CCCCN)NC(=O)[C@H](CC(N)=O)NC(=O)[C@H](C)NC(=O)[C@H](CC(N)=O)NC(=O)[C@@H]1CCCN1C(=O)[C@@H]1CCCN1C(=O)[C@@H](N)Cc1ccc(O)cc1)[C@@H](C)CC)[C@@H](C)O)C(=O)N[C@@H](C)C(=O)N[C@H](C(=O)N[C@H](C(=O)N[C@H](C(=O)NCC(=O)O)[C@@H](C)CC)[C@@H](C)CC)C(C)C [DP I-6.1] (H-YPPNANKIREALAQTHSAIAVIIG-OH; N-terminus and C-terminus assumed)
T cell reactivity of overlapping Der p I peptides in panel of patients ([1]; 33 positive experiments): significant regions of T cell reactivity | S.I. with which this patient responds [1]: at least 2.0 | STIMULATION INDEX [2]: 2.1

CC[C@H](C)[C@H](NC(=O)[C@H](CC(N)=O)NC(=O)[C@H](C)NC(=O)[C@H](C)NC(=O)[C@H](Cc1ccccc1)NC(=O)[C@H](Cc1ccc(O)cc1)NC(=O)CNC(=O)[C@H](Cc1ccc(O)cc1)NC(=O)CNC(=O)[C@H](CC(N)=O)NC(=O)[C@H](CC(=O)O)NC(=O)CN)C(=O)N[C@@H](CC(=O)O)C(=O)N[C@@H](CC(C)C)C(=O)N[C@@H](CCSC)C(=O)N[C@@H](CCSC)C(=O)N[C@H](C(=O)N[C@@H](CCC(=O)O)C(=O)N[C@@H](CCC(=O)O)C(=O)N[C@@H](Cc1ccc(O)cc1)C(=O)N1CCC[C@H]1C(=O)N[C@@H](Cc1ccc(O)cc1)C(=O)N[C@H](C(=O)N[C@H](C(=O)N[C@H](C(=O)N[C@@H](CC(C)C)C(=O)O)[C@@H](C)CC)C(C)C)C(C)C)[C@@H](C)CC [DP I-17] (H-GDNGYGYFAANIDLMMIEEYPYVVIL-OH; N-terminus and C-terminus assumed)
S.I. with which this patient responds [1]: at least 2.0 | STIMULATION INDEX [2]: 0

CC(C)C[C@H](NC(=O)[C@H](Cc1ccc(O)cc1)NC(=O)[C@H](C)NC(=O)[C@H](CO)NC(=O)[C@H](CCC(=O)O)NC(=O)[C@@H](NC(=O)[C@H](C)NC(=O)[C@H](C)NC(=O)[C@@H](N)C(C)C)[C@@H](C)O)C(=O)N[C@@H](C)C(=O)N[C@@H](Cc1c[nH]cn1)C(=O)N[C@@H](CCCNC(=N)N)C(=O)N[C@@H](CC(N)=O)C(=O)N[C@@H](CCC(N)=O)C(=O)N[C@@H](CO)C(=O)N[C@@H](CC(C)C)C(=O)N[C@@H](CC(=O)O)C(=O)N[C@@H](CC(C)C)C(=O)N[C@@H](C)C(=O)N[C@@H](CCC(=O)O)C(=O)N[C@@H](CCC(N)=O)C(=O)N[C@@H](CCC(=O)O)C(=O)N[C@@H](CC(C)C)C(=O)N[C@H](C(=O)N[C@@H](CC(=O)O)C(=O)O)C(C)C [DP I-22.2] (H-VAATESAYLAHRNQSLDLAEQELVD-OH; N-terminus and C-terminus assumed)
response of Der p I primed T cells to selected Der p I peptides ([1]; 33 positive experiments, FIG. 13): respond significantly | STIMULATION INDEX [2]: 3.1

CC[C@H](C)[C@H](N)C(=O)N[C@H](C(=O)N[C@@H](CCC(N)=O)C(=O)N[C@@H](CCCNC(=N)N)C(=O)N[C@@H](CC(=O)O)C(=O)N[C@@H](CC(N)=O)C(=O)NCC(=O)N[C@@H](Cc1ccc(O)cc1)C(=O)N[C@@H](CCC(N)=O)C(=O)N1CCC[C@H]1C(=O)N[C@@H](CC(N)=O)C(=O)N[C@@H](Cc1ccc(O)cc1)C(=O)N[C@@H](Cc1c[nH]cn1)C(=O)N[C@@H](C)C(=O)N[C@H](C(=O)N[C@@H](CC(N)=O)C(=O)N[C@H](C(=O)N[C@H](C(=O)NCC(=O)N[C@@H](Cc1ccc(O)cc1)C(=O)N[C@@H](CO)C(=O)N[C@@H](CC(N)=O)C(=O)N[C@@H](C)C(=O)O)C(C)C)[C@@H](C)CC)C(C)C)[C@@H](C)CC [DP I-9] (H-IIQRDNGYQPNYHAVNIVGYSNA-OH; N-terminus and C-terminus assumed)
T cell reactivity of overlapping Der p I peptides in panel of patients ([1]; 33 positive experiments): significant regions of T cell reactivity | S.I. with which this patient responds [1]: at least 2.0 | STIMULATION INDEX [2]: 2.4
